# Source: PubChem BioAssay AID445 (National Center for Advancing Translational Sciences (NCATS), 2006)
# The other results are listed elsewhere or left out. Shown are side measurements of this screen, not its main read-out; they come without a call. Compounds called inactive in the main read-out are mostly missing here. Words in brackets tell the shape of the fitted curve; partial curves, single points and poor fits give uncertain potencies.
# Test: IkB Signaling
# Conditions: ABC-DLBCL IkBa-CBG/CBR dual luciferase ratio (green luciferase fused to IkBa over red control in OCI-Ly3 lymphoma cells), 4 h; measured here: control luc red channel unless noted
# Procedure, shortened: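 In this assay, an IκBα–CBG68 fusion accumulates when IKK-driven degradation is blocked; native CBR normalizes for cell number. OCI-Ly3 cells were treated 4 h with compound and doxycycline, then green and red light read after Chroma-Glo addition.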
row,Structure (SMILES),AC50
1,Cc1ccc(C(c2sc3nc(-c4ccco4)nn3c2O)N2CCOCC2)cc1 (configuration not stated),"31.6 µM [rising, single point]"
2,COc1ccccc1NC(=O)CSc1nc2ccccc2c(=O)n1CCC(=O)NC1CCCCC1,"39.8 µM [falling, single point]"
3,COc1cc2c(C#N)c(N3CCN(c4ccccc4OC)CC3)nc(N)c2c(N)n1,"3.16 µM [falling, full curve]"
4,Cc1nn(C(=O)c2ccccc2)c(C)c1Sc1ccc(Cl)cc1,"25.1 µM [falling, single point]"
5,Cc1ccc(Cn2nc(C)c(NC(=O)c3cc(-c4ccc(F)cc4)on3)c2C)cc1,"7.94 µM [falling, partial curve]"
6,CCOc1ccc(NC(=O)Cn2c(=O)oc3cc(S(=O)(=O)NC4CCCC4)ccc32)cc1,"15.8 µM [falling, partial curve]"
7,O=C1c2ccccc2C(Nc2ccc3c(c2)OCCO3)N1Cc1ccccc1 (configuration not stated),"10 µM [falling, partial curve]"
8,COc1ccc2cc(CN(CCc3ccccc3)Cc3nnnn3Cc3ccco3)c(=O)[nH]c2c1,"39.8 µM [falling, single point]"
9,CCc1ccc(NC(=O)C2CCCN(S(=O)(=O)c3ccc4c(c3)CCCN4C(C)=O)C2)cc1 (configuration not stated),"25.1 µM [falling, single point]"
10,Cc1ccc(-n2ncc(C(=O)N3CCCCC3)c2C2CCN(C(=O)OC(C)(C)C)CC2)cc1C,"12.6 µM [falling, partial curve]"
11,Cc1cccc(OCC(=O)NCC2(N3CCN(C)CC3)CCCCC2)c1C,"1.58 µM [falling, partial curve]"
12,O=c1oc(-c2ccco2)nc2ccccc12,"25.1 µM [rising, partial curve] [measured here: IkB-luc green channel]"
13,Cc1ccc(NC(=O)c2ccc3snnc3c2)cc1Cl,"0.0501 µM [rising, full curve]"
14,CCc1ccc(S(=O)(=O)c2nnn(-c3ccc(F)cc3)c2N)cc1,"7.94 µM [falling, single point]"
15,Cc1cccc(NC(=O)Cn2nnc(-c3cccs3)n2)c1C,"12.6 µM [falling, partial curve]"
16,CC(=O)N1CCc2c(sc3c2c(=O)n(-c2ccccc2)c(=O)n3CC(=O)c2ccc(Cl)cc2)C1,"39.8 µM [falling, single point]"
17,COCCNC(=O)CCn1c(=O)c2cc(OC)c(OC)cc2n(CC(=O)Nc2ccc(F)c(Cl)c2)c1=O,"5.01 µM [falling, partial curve]"
18,O=C(Nc1nnc(C2CC2)s1)C1Cc2ccccc2CN1S(=O)(=O)c1cccs1 (configuration not stated),"31.6 µM [falling, partial curve]"
19,Cc1cc(C)c(NC(=O)Cn2c(=O)n(-c3cccc(C(F)(F)F)c3)c(=O)c3c(C)c(C)sc32)c(C)c1,"25.1 µM [falling, single point]"
20,O=C(O)c1ccc(Nc2nc3ccccc3c3nncn23)cc1,"0.501 µM [falling, full curve]"
21,COc1ccccc1NC(=O)C(Cc1ccccc1)NS(=O)(=O)c1ccc2c(c1)CCN2C(C)=O (configuration not stated),"12.6 µM [falling, partial curve]"

# Already shown: an excerpt of the list.
row,Structure (SMILES),AC50
12,O=c1oc(-c2ccco2)nc2ccccc12,"25.1 µM [rising, partial curve] [measured here: IkB-luc green channel]"
13,Cc1ccc(NC(=O)c2ccc3snnc3c2)cc1Cl,"0.0501 µM [rising, full curve]"
14,CCc1ccc(S(=O)(=O)c2nnn(-c3ccc(F)cc3)c2N)cc1,"7.94 µM [falling, single point]"

# (listing goes on)

row,Structure (SMILES),AC50
1,CCc1ccccc1Nc1nn2c(=O)c3ccc(C(=O)NCc4ccc(C)cc4)cc3nc2s1,"1.58 µM [falling, full curve, poor fit]"
2,CCCCc1nn2c(=O)cc(COC(=O)c3cccc(NC(=O)COc4ccccc4)c3)nc2s1,"10 µM [falling, partial curve]"
3,CCN(CCCNC(=O)CSc1cc(=O)n(C)c2ccccc12)c1ccccc1,"7.94 µM [falling, partial curve]"
4,O=C(Nc1ccc(Cl)cc1Cl)c1cc(S(=O)(=O)N2CCC3(CC2)OCCO3)ccc1F,"15.8 µM [falling, partial curve]"
5,COc1cccc(-c2nc(NCCc3c[nH]c4ccc(OC)cc34)c3ccccc3n2)c1,"3.98 µM [falling, partial curve] [measured here: IkB-luc green channel]"
6,CC(=O)Oc1ccc(NC(=O)C2CCCCC2)c(C(=O)O)c1,"0.0794 µM [falling, full curve]"
7,O=C1CS(=O)(=O)C2(C(=O)Nc3ccccc32)N1c1cccc(Cl)c1 (configuration not stated),"25.1 µM [falling, partial curve]"
8,CC(C)(C)C(=O)Nc1cc(-c2cccc(Br)c2)nn1-c1ccccc1,"0.0251 µM [falling, full curve, poor fit]"
9,CC(=O)Oc1ccccc1C(=O)Nc1ncc([N+](=O)[O-])s1,"0.0398 µM [falling, full curve]"
10,CCOC(=O)c1ccc(NC(=O)CSc2nc3ncc(Br)c(C)c3[nH]2)cc1,"1.58 µM [falling, full curve]"
11,CCOC(=O)CC(=O)Nc1ccc(Br)cc1C(=O)O,"12.6 µM [falling, partial curve]"
12,COc1ccc(-c2cc3nc(N)cc(=O)n3[nH]2)cc1,"39.8 µM [rising, partial curve]"
13,COc1ccc(OC)c(-c2oc3ccccc3c(=O)c2O)c1,"20 µM [falling, single point]"
14,CC(C)c1ccc2oc(-c3ccc(Cl)c(NC(=O)c4cccs4)c3)nc2c1,"0.2 µM [falling, full curve]"
15,CCOC(=O)N1CCC(Nc2c(N3CCN(c4cccc(C(F)(F)F)c4)CC3)c(=O)c2=O)CC1,"15.8 µM [falling, partial curve]"
16,Cc1cccc(C)c1OCc1cc(=O)n2c(-c3ccccc3)csc2n1,"39.8 µM [falling, single point]"
17,CC(=O)C1=C(C)NC(SCC(=O)c2ccc(Cl)cc2)=C(C#N)C1c1ccco1 (configuration not stated),"15.8 µM [falling, partial curve]"
18,Cc1[nH]ccc2c1[nH]c1cc(=O)ccc12,"7.94 µM [falling, partial curve]"
19,Cc1ccc(C(=O)Nc2ccc(F)cc2)cc1S(=O)(=O)N1CCCCCC1,"25.1 µM [falling, partial curve]"
20,CNC(=O)c1cc(Nc2nnc(-c3ccc(O)cc3)c3ccccc23)ccc1OC,"12.6 µM [falling, partial curve]"
21,CC(NC(=O)c1ccccc1NC(=O)c1nsc2ccccc12)c1ccccc1 (configuration not stated),"0.00631 µM [rising, full curve, poor fit]"

row,Structure (SMILES),AC50
1,CCOC(=O)c1c(-c2ccc(C)o2)csc1NC(=O)CSc1nnc(C)s1,"25.1 µM [falling, single point]"
2,COc1ccc(-c2cc(C)nc3c(-c4ccc(OC)c(OC)c4)c(C)nn23)cc1,"25.1 µM [falling, single point]"
3,CCc1nc(N2CCN(C(=O)c3ccco3)CC2)c2oc3ccccc3c2n1,"10 µM [falling, partial curve]"
4,Cc1cccc(-c2nnn3c2nc(NCCc2ccc(S(N)(=O)=O)cc2)c2cc(Cl)ccc23)c1,"2.51 µM [falling, full curve]"
5,CS(=O)(=O)N(CC(=O)NCCc1ccccc1)c1cc(C(F)(F)F)ccc1Cl,"25.1 µM [falling, partial curve]"
6,CCCCCn1c(=O)[nH]c2cc(C(=O)N3CCN(c4cccc(C)c4)C(C)C3)ccc2c1=O (configuration not stated),"5.01 µM [falling, full curve]"
7,CC1=CC(C)(C)N(C(=O)CSc2nnc(-c3ccccc3)o2)c2ccc(C)cc21,"12.6 µM [falling, partial curve]"
8,CCn1c(=O)cc(SCC(=O)NCCc2ccc(Cl)cc2)c2ccccc21,"20 µM [falling, partial curve]"
9,CCOC(=O)C1CCC(CN(Cc2ccc(Cl)cc2)S(=O)(=O)c2ccc(F)c(C(=O)Nc3cccc(F)c3)c2)CC1 (configuration not stated),"20 µM [falling, partial curve, poor fit]"
10,COc1ccc(S(=O)(=O)N2CCCCC2)cc1C(=O)Nc1cccc(C(F)(F)F)c1,"0.126 µM [falling, full curve]"
11,COc1ccc(/C=C/C(=O)Nc2sc3c(c2C(N)=O)CCCC3)cc1,"10 µM [falling, full curve]"
12,Cc1cccc(-c2noc(CN(C(=O)c3ccc4c(c3)OCO4)C(C)C)n2)c1,"15.8 µM [falling, partial curve]"
13,O=c1n(Cc2cccc(C(F)(F)F)c2)c2ccccc2c2nc(-c3ccccc3)nn12,"12.6 µM [falling, partial curve]"
14,Cc1ccc(-c2ccc(CCC(=O)O)n2-c2cccc(O)c2)cc1,"12.6 µM [falling, partial curve]"
15,Cc1ccc(CNC(=O)CCCCCn2c(=O)c3sccc3n(CC(=O)N(C)c3ccccc3)c2=O)cc1,"25.1 µM [falling, single point]"
16,N#Cc1c(NC(=O)COC(=O)C2CC3C=CC2C3)oc(-c2ccccc2)c1-c1ccccc1 (configuration not stated),"15.8 µM [falling, partial curve]"
17,O=C(CSc1nnc(-c2cccnc2)n1-c1ccccc1)Nc1ccc2c(c1)OCO2,"12.6 µM [falling, partial curve]"
18,CSc1nn(Cc2ccc(Cl)cc2)c(N(C(C)=O)C(C)=O)c1S(=O)(=O)c1ccccc1,"12.6 µM [falling, partial curve]"
19,Cc1ccc(NS(=O)(=O)c2ccc3[nH]c(=O)ccc3c2)cc1N(C)C,"15.8 µM [falling, partial curve, poor fit]"
20,Cc1ccc(C)c(OCCn2cc(C(=O)c3ccco3)c3ccccc32)c1,"5.01 µM [falling, partial curve]"
